This data set in a line: Photophysical characterizations (SOQ, molar extinction coefficient, FQ). The format is physicochemical. As to conditions: in DMSO; for Molar extinction coefficient ε: absorbance at 668 nm, Beer-Lambert law.

For the compound `C=Cc1c(C)c2cc3nc(c4c5[nH]c(cc6nc(cc1[nH]2)C(C)=C6CC)c(C)c5C(=O)C4)[C@@H](CCC(=O)O)[C@@H]3C` [Ppa, pyropheophorbide a], the “Molar extinction coefficient ε” value is on record as 3.49 10^4 M-1·cm−1.

For the compound “PEG‐dendritic peptide‐pyropheophorbide a [PDPP]”, the “Molar extinction coefficient ε” value was 3.07 10^4 M-1·cm−1. Also, the “SOQ (singlet oxygen quantum yield)” value (DMA sensor, 660 nm laser 80 mW cm-2, relative to Ppa reference 0.50) amounted to 0.51.
